Test system: anti-CsA antibody
Assay: KD measurement by fluorescence polarization of Fluorescein-labeled CsA tracer and binding equilibrium estimates
Conditions: calculated for equilibrium with excess antibody

Nc1nc2cccc(-c3ccc(CN4CCS(=O)(=O)CC4)cc3)n2n1 [Metabolite]
% Bound (First Incubation Step, Metabolite 83 nM, Cyclosporine 17 nM): 10%
% Bound (Second Incubation Step, Metabolite 2.5 nM, CsA 0.5 nM): 0.3%

Source: patent US8288111B2 (Abbott Laboratories, priority 2007, dated 2012)
